Experimental data as given in publication PMC2194712, “Structure of Arabidopsis thaliana 5-methylthioribose kinase reveals a more occluded active site than its bacterial homolog” (BMC Structural Biology, 2007).
No constants are given. Whether binding was seen depends on the method and setting. Some results given as binding are weak or reduced against the parent protein; the word gives no strength.

Molecular target: Arabidopsis thaliana 5-methylthioribose kinase (Arabidopsis thaliana) (UniProt Q9C6D2)
Assay: crystal structure; co-crystallised with ATPγS and MTR (ADP and MTR found bound); space group C2, a dimer per asymmetric unit; 1.9 Å; both purified

binding: binds
B1: Arabidopsis thaliana 5-methylthioribose kinase (enzyme, UniProt Q9C6D2 1-420, looked up)
chain: MSFEEFTPLNEKSLVDYIKSTPALSSKIGADKSDDDLVIKEVGDGNLNFVFIVVGSSGSLVIKQALPYIRCIGESWPMTKERAYFEATTLRKHGNLSPDHVPEVYHFDRTMALIGMRYLEPPHIILRKGLIAGIEYPFLADHMSDYMAKTLFFTSLLYHDTTEHRRAVTEFCGNVELCRLTEQVVFSDPYRVSTFNRWTSPYLDDDAKAVREDSALKLEIAELKSMFCERAQALIHGDLHTGSVMVTQDSTQVIDPEFSFYGPMGFDIGAYLGNLILAFFAQDGHATQENDRKEYKQWILRTIEQTWNLFNKRFIALWDQNKDGPGEAYLADIYNNTEVLKFVQENYMRNLLHDSLGFGAAKMIRRIVGVAHVEDFESIEEDKRRAICERSALEFAKMLLKERRKFKSIGEVVSAIQQQS
notes: 5-methylthioribose (MTR) kinase of Arabidopsis thaliana, 420 residues; residues 1 and 420 are named as part of the crystallised protein (not modelled); also called A. thaliana MTR kinase; MTR kinase
